The experiment has as its system L1210 leukemia ip in BDF1 mice, survival T/C. As to the kind of experiment: NCI In Vivo Anticancer Drug Screen. Data for tumor model L1210 Leukemia (intraperitoneal) in B6D2F1 (BDF1) mice. The settings on record: T/C endpoint: mean survival time, higher T/C = longer survival.
[1] abbreviates: dose: 100.0 mg/kg/injection, schedule: Q01DX009 (ip), vehicle: Klucel (hydroxypropylcellulose) (HPC).
The mark [2] stands for this setting: dose: 200.0 mg/kg/injection, schedule: Q01DX009 (ip), vehicle: Klucel (hydroxypropylcellulose) (HPC).
Where [3] appears, read: dose: 100.0 mg/kg/injection, schedule: Q04DX003 (ip), vehicle: Klucel (hydroxypropylcellulose) (HPC).
[4] abbreviates: dose: 200.0 mg/kg/injection, schedule: Q04DX003 (ip), vehicle: Klucel (hydroxypropylcellulose) (HPC).
Where [5] appears, read: dose: 400.0 mg/kg/injection, schedule: Q01DX009 (ip), vehicle: Klucel (hydroxypropylcellulose) (HPC).
Where [6] appears, read: dose: 400.0 mg/kg/injection, schedule: Q04DX003 (ip), vehicle: Klucel (hydroxypropylcellulose) (HPC).
The mark [7] stands for this setting: dose: 100.0 mg/kg/injection, schedule: Q04DX003 (ip), vehicle: saline with Tween-80.

The list does not hold the whole screen: it gathers some chemical classes. Not every dose and run of a compound is shown. T/C is the treated group as % of the vehicle group. Some entries give survivors of the animals treated and no T/C: the source holds a T/C of zero for them, seemingly a mark for toxic or unscored doses. Some survivor counts are full or nearly so, which does not show that the dose was tolerated: the source hardly ever lists a survival T/C far under the control, and the zero likely stands for such cases as well. Counts of survivors are from the toxicity check (mostly the fifth day) where no day follows; animals may have died later. Schedule codes are those of the source, read here as Q, the interval in days (D) or hours (H), X, the number of doses. For survival time, this PubChem deposit counts one and a half times the control or more as active, and values a quarter to a half above the control carry no call in these data; other NCI protocols may use other cut-offs. Some entries show no survivor count and are marked so; the dose need not have been tolerated. Some structures stand for samples that the source files as different forms (salt, stereo form or complex); doses refer to the form tested. Some T/C values are followed by the survivors on the day toxicity was checked, most often the fifth; without a count or a note in brackets, all were alive then. Some doses were run more than once; their values stand side by side, smallest first.

For `NP(=O)(N1CC1)N(CCCl)CC(Cl)CCCCl` (stereo unspecified), the T/C is 103 % of control (dose: 6.0 mg/kg/injection, schedule: Q01DX015 (ip), vehicle: saline); 103 % of control (dose: 9.0 mg/kg/injection, schedule: Q01DX015 (ip), vehicle: saline); 122 % of control (dose: 13.0 mg/kg/injection, schedule: Q01DX015 (ip), vehicle: saline); 129 [4 of 6 alive] and 144 % of control (dose: 19.0 mg/kg/injection, schedule: Q01DX015 (ip), vehicle: saline); 185 % of control (dose: 32.0 mg/kg/injection, schedule: Q01DX015 (ip), vehicle: saline); 96 % of control (dose: 50.0 mg/kg/injection, schedule: Q01DX001 (ip), vehicle: saline). The T/C is 150 % of control (dose: 53.0 mg/kg/injection, schedule: Q01DX015 (ip), vehicle: saline); 143 % of control (dose: 89.0 mg/kg/injection, schedule: Q01DX001 (ip), vehicle: saline); 90 % of control (dose: 89.0 mg/kg/injection, schedule: Q01DX015 (ip), vehicle: saline); 109 % of control (dose: 100.0 mg/kg/injection, schedule: Q01DX001 (ip), vehicle: saline); 105 % of control [5 of 6 alive] (dose: 133.0 mg/kg/injection, schedule: Q01DX001 (ip), vehicle: saline); 107 [5 of 6 alive] and 156 % of control (dose: 200.0 mg/kg/injection, schedule: Q01DX001 (ip), vehicle: saline). For the same compound, the survivor count is given as 2 of 6 (dose: 300.0 mg/kg/injection, schedule: Q01DX001 (ip), vehicle: saline) and 2 of 4 (dose: 400.0 mg/kg/injection, schedule: Q01DX001 (ip), vehicle: saline).
For the compound `CC1(C)CN1P(=O)(Nc1ccccn1)N1CC1(C)C` (stereo unspecified), the T/C is, setting by setting: (dose: 25.0 mg/kg/injection, schedule: Q01DX009 (ip), vehicle: Klucel (hydroxypropylcellulose) (HPC)) 103 % of control; (dose: 50.0 mg/kg/injection, schedule: Q01DX009 (ip), vehicle: Klucel (hydroxypropylcellulose) (HPC)) 108 % of control; under setting [1], 114 % of control; under setting [2], 141 % of control.
Regarding `CC(C)SC(OC(=O)COc1ccc(Cl)cc1)C(Cl)(Cl)Cl` (stereo unspecified), the T/C was 103 % of control (dose: 25.0 mg/kg/injection, schedule: Q01DX009 (ip), vehicle: other); 97 % of control (dose: 50.0 mg/kg/injection, schedule: Q01DX009 (ip), vehicle: other); 101 [5 of 6 alive] and 102 % of control [5 of 6 alive] (dose: 100.0 mg/kg/injection, schedule: Q01DX009 (ip), vehicle: other); 102 % of control (dose: 100.0 mg/kg/injection, schedule: Q04DX003 (ip), vehicle: other); 95 % of control (dose: 200.0 mg/kg/injection, schedule: Q01DX009 (ip), vehicle: other); 102 % of control (dose: 200.0 mg/kg/injection, schedule: Q04DX003 (ip), vehicle: other). Where the note is “dose: 400.0 mg/kg/injection, schedule: Q04DX003 (ip), vehicle: other”, the T/C was 94 % of control. Also, for the setting “dose: 400.0 mg/kg/injection, schedule: Q01DX009 (ip), vehicle: other”, the survivor count was 3 of 6.
Regarding `O=P(NC(=S)NN1CCOCC1)(Oc1ccccc1)Oc1ccccc1`, the T/C is, setting by setting: (dose: 100.0 mg/kg/injection, schedule: Q01DX009 (ip), vehicle: carboxymethylcellulose (CMC)) 104 % of control; (dose: 200.0 mg/kg/injection, schedule: Q01DX009 (ip), vehicle: carboxymethylcellulose (CMC)) 98 % of control; (dose: 400.0 mg/kg/injection, schedule: Q01DX009 (ip), vehicle: carboxymethylcellulose (CMC)) 93 % of control.
As to `CCC(=O)ON[N+](=O)[O-]`, the T/C (dose: 100.0 mg/kg/injection, schedule: Q04DX002 (ip), vehicle: saline) was 103 % of control and the T/C (dose: 200.0 mg/kg/injection, schedule: Q04DX002 (ip), vehicle: saline) is 114 % of control. Further, the survivor count (dose: 400.0 mg/kg/injection, schedule: Q04DX002 (ip), vehicle: saline) is reported as 0 of 3.
In the case of `CC(C)(C)C1CC(C(F)(F)F)(C(F)(F)F)OP(=O)(Cl)O1` (stereo unspecified), the T/C by setting is: under setting [1], 105 % of control; under setting [3], 97 % of control; under setting [2], 102 % of control; under setting [4], 94 % of control; under setting [6], 97 % of control. In addition, the survivor count under setting [5] is 4 of 6.
Consider `Cc1cccc(OP(=S)(Cl)Oc2cccc(C)c2)c1`, for which the T/C by setting is: under setting [1], 101 % of control; under setting [2], 100 % of control. In addition, the survivor count under setting [5] was 0 of 6.
Consider `COC(=O)CC[N+]1(C)CC1`, for which the T/C was 93 % of control under setting [1]; 109 % of control under setting [3]; 90 % of control under setting [2]; 94 % of control under setting [4]; 97 % of control [4 of 6 alive] under setting [5]; 113 % of control under setting [6].
Turning to `S=P(Cl)(Cl)c1ccc(Cl)cc1`, the T/C runs as follows: (dose: 12.5 mg/kg/injection, schedule: Q01DX009 (ip), vehicle: saline with Tween-80) 95 % of control; (dose: 25.0 mg/kg/injection, schedule: Q01DX009 (ip), vehicle: saline with Tween-80) 95 % of control; (dose: 50.0 mg/kg/injection, schedule: Q01DX009 (ip), vehicle: saline with Tween-80) 95 % of control; under setting [7], 88 % of control. Moreover, the survivor count by setting is: (dose: 200.0 mg/kg/injection, schedule: Q04DX003 (ip), vehicle: saline with Tween-80) 3 of 6; (dose: 400.0 mg/kg/injection, schedule: Q04DX003 (ip), vehicle: saline with Tween-80) 0 of 6.
As to `ClCCN1CCNCC1`, the T/C is 100 % of control [5 of 6 alive] (dose: 12.5 mg/kg/injection, schedule: Q01DX009 (ip), vehicle: saline); 101 % of control (dose: 12.5 mg/kg/injection, schedule: Q04DX003 (ip), vehicle: saline); 103 % of control (dose: 25.0 mg/kg/injection, schedule: Q01DX009 (ip), vehicle: saline); 113 % of control (dose: 25.0 mg/kg/injection, schedule: Q04DX003 (ip), vehicle: saline); 100 % of control (dose: 50.0 mg/kg/injection, schedule: Q04DX003 (ip), vehicle: saline). Moreover, for the setting “dose: 50.0 mg/kg/injection, schedule: Q01DX009 (ip), vehicle: saline”, the survivor count is given as 6 of 6.
Regarding `ClCCN(CCCl)/N=N/c1nn[nH]n1`, the T/C is, setting by setting: (dose: 50.0 mg/kg/injection, schedule: Q01DX001 (ip), vehicle: saline with Tween-80) 101 % of control; (dose: 100.0 mg/kg/injection, schedule: Q01DX001 (ip), vehicle: saline with Tween-80) 101 % of control; (dose: 200.0 mg/kg/injection, schedule: Q01DX001 (ip), vehicle: saline with Tween-80) 104 % of control; (dose: 400.0 mg/kg/injection, schedule: Q01DX001 (ip), vehicle: saline with Tween-80) 93 % of control.
For `O=Cc1ccc(N(CCI)CCI)cc1`, the T/C reads like this: (dose: 50.0 mg/kg/injection, schedule: Q01DX001 (ip), vehicle: carboxymethylcellulose (CMC)) 114 % of control; (dose: 100.0 mg/kg/injection, schedule: Q01DX001 (ip), vehicle: carboxymethylcellulose (CMC)) 118 % of control; (dose: 200.0 mg/kg/injection, schedule: Q01DX001 (ip), vehicle: carboxymethylcellulose (CMC)) 103 % of control; (dose: 400.0 mg/kg/injection, schedule: Q01DX001 (ip), vehicle: carboxymethylcellulose (CMC)) 108 % of control.
With `n1nc(-c2nn[nH]n2)n[nH]1`, the T/C is 90 % of control [survivor count not shown] under setting [7]; 104 % of control [survivor count not shown] (dose: 100.0 mg/kg/injection, schedule: Q04DX003 (ip), vehicle: saline); 93 % of control [survivor count not shown] (dose: 200.0 mg/kg/injection, schedule: Q04DX003 (ip), vehicle: saline); 96 % of control [survivor count not shown] (dose: 400.0 mg/kg/injection, schedule: Q04DX003 (ip), vehicle: saline).

The record behind these values is PubChem BioAssay AID248 (DTP/NCI, 2004).
